Assay results

From PubChem BioAssay record AID1224904 (Broad Institute, 2016).

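293T-iDUX4 dual-reporter cells; luminescence of the tet-on Italica luciferase control is read after 24 h.
The test concentration is not given here.
Percent change in the Italica control signal; more negative values mean stronger inhibition, which points to nonspecific, tet-on or cytotoxic effects.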

Values are in %.
Common to all entries: measured here: Italica tet-on control reporter.
This is a side read-out of the assay, for part of the compounds, not drawn at random.

| SMILES | activity change (%) |
|---|---|
| `COCC(=O)N1CC2(CCN(Cc3ccccc3)CC2)c2c([nH]c3cc(OC)ccc23)[C@H]1CO` | -69.24 |
| `COc1cccc(-c2ccc3n(c2=O)C[C@H]2[C@H](CO)[C@@H](C(=O)N(C)C)N(C(=O)C4CCC4)[C@@H]32)c1` | 3.699 |
| `O=C(C[C@H]1CC[C@H]2[C@@H](COC[C@H](O)CN2CCC(F)(F)F)O1)N1CCC(Cc2ccccc2)CC1` | -5.719 |
| `COc1ccccc1S(=O)(=O)N(C)C[C@@H]1OCc2ccccc2-c2c(n(C)c3ccccc23)C(=O)N([C@@H](C)CO)C[C@@H]1C` | -65.4 |
| `O=C(c1ccc(F)cc1)N1CC(=O)N2[C@@H](CO)[C@H](c3ccc(C#CC4CCCCC4)cc3)[C@@H]2C1` | -8.204 |
| `COc1cccc(S(=O)(=O)Nc2ccc3c(c2)[C@H]2C[C@H](CC(=O)NCc4cccc(F)c4)O[C@H](CO)[C@H]2O3)c1` | -9.443 |
| `O=C(c1cnccn1)N1CC(=O)N2[C@H](CO)[C@@H](c3ccc(C#CCC4CCCC4)cc3)[C@@H]2C1` | -10.47 |
| `CCCNC(=O)N1CC[C@@H]2[C@H]1c1cc(C#Cc3ccc(OC)cc3)ccc1N(C)[C@@H]2CO` | -7.81 |
| `COCC(=O)N1C[C@@H](C)[C@H](OC)CN(C)C(=O)c2ccc(NC(=O)c3ccc(-c4ccccc4)cc3)cc2OC[C@H]1C` | -5.793 |
| `C[C@@H]1CN([C@@H](C)CO)C(=O)c2ccccc2-c2ccccc2CO[C@@H]1CN(C)S(=O)(=O)c1ccc(F)cc1` | -3.722 |
| `COc1ccccc1-c1ccc2c(c1)[C@@H]1[C@@H](CCN1C(=O)C1CCC1)[C@H](CO)N2` | -46.48 |
| `CC(=O)N1CCCCN2[C@H](CO)[C@H](c3ccc(C#Cc4ccccc4F)cc3)[C@H]2C1` | -14.89 |
| `COc1ccc2c3c([nH]c2c1)[C@@H](CO)N(CC1CCCCC1)CC31CN(C(=O)C2CCOCC2)C1` | 3.556 |
| `OC[C@@H]1Nc2ccc(-c3cccc(F)c3)cc2[C@@H]2[C@H]1CCN2Cc1ccc(F)cc1` | 1.068 |
| `CCCNC(=O)N1[C@H](CO)[C@H](c2ccccc2-c2ccccc2)[C@@H]1C#N` | -12.1 |
| `CO[C@H]1CN(C)C(=O)c2cc(NC(=O)Nc3ccc(Cl)c(Cl)c3)ccc2OC[C@H](C)NC[C@@H]1C` | -48.28 |
| `CO[C@@H]1CN(C)C(=O)c2ccc(NC(=O)c3cccc(Oc4ccccc4)c3)cc2OC[C@H](C)NC[C@H]1C` | -36.15 |
| `O=C(Nc1ccccc1F)N1C[C@@H]2N[C@H](C1)C2c1ccc(-c2ccccc2)cc1` (stereo not given in full) | -15.67 |
| `O=C(C[C@@H]1C[C@H]2c3cc(NC(=O)C4CCC4)ccc3O[C@H]2[C@H](CO)O1)NCc1ccccc1F` | -11.44 |
| `CN(C)C(=O)c1cccc(-c2ccc3c(c2)[C@H]2[C@H](CCN2C(=O)C2CCC2)[C@H](CO)N3)c1` | -34.14 |
| `O=C(Nc1ccccc1F)N1CCCCN2[C@H](CO)[C@@H](c3ccc(/C=C/c4ccccc4)cc3)[C@H]2C1` | -11.18 |
| `CCC(=O)N1CCCCN2[C@H](CO)[C@H](c3ccc(/C=C/c4ccccc4)cc3)[C@H]2C1` | -22.27 |
| `CC(=O)N1CCCCN2[C@H](CO)[C@H](c3ccc(-c4ccc(F)cc4)cc3)[C@@H]2C1` | -48.27 |
| `Cc1ccccc1S(=O)(=O)N1CCCCN2[C@@H](CO)[C@H](c3ccc(-c4cccnc4)cc3)[C@@H]2C1` | -2.938 |
| `O=C(C[C@@H]1C[C@H]2c3cc(NC(=O)Nc4ccccc4F)ccc3O[C@H]2[C@H](CO)O1)NCCc1ccccc1` | 6.714 |
| `CC(C)OC(=O)N(C)C[C@@H]1OCc2ccccc2-c2c(n(C)c3ccccc23)C(=O)N([C@@H](C)CO)C[C@@H]1C` | -29.22 |
| `O=C(C[C@H]1CC[C@H]2[C@@H](COC[C@H](O)CN2C(=O)Nc2ccc(Cl)cc2)O1)NCC1CCCCC1` | -3.818 |
| `N#C[C@@H]1[C@H](c2ccccc2C2=CCCCC2)[C@H](CO)N1C(=O)c1cccc(F)c1` | -3.101 |
| `CCCN1[C@@H]2c3ccc(-c4ccc(F)cc4)c(=O)n3C[C@@H]2[C@@H](CO)[C@@H]1C(=O)N[C@H](C)c1ccccc1` | -6.665 |
| `O=C(C[C@@H]1C[C@@H]2c3cc(NS(=O)(=O)c4ccc(F)cc4)ccc3O[C@@H]2[C@@H](CO)O1)NCc1ccc(Oc2ccccc2)cc1` | -96.81 |
| `O=C(C[C@H]1CC[C@@H]2[C@H](COC[C@H](O)CN2CC2CCCCC2)O1)NCc1ccc(Cl)cc1` | -27.45 |
| `O=S(=O)(c1cccs1)N1CCCCN2[C@H](CO)[C@H](c3ccc(-c4ccccc4)cc3)[C@@H]2C1` | -38.12 |
| `CCC(=O)N1CCC2(CC1)CN(Cc1ccccc1Cl)[C@@H](CO)c1c2c2ccc(OC)cc2n1C` | -6.431 |
| `CCS(=O)(=O)N1CCC2(CC1)CN(S(=O)(=O)c1ccc(C)cc1)[C@@H](CO)c1[nH]c3cc(OC)ccc3c12` | -11.3 |
| `O=C(Nc1cccc(F)c1)N1CCCCN2[C@H](CO)[C@@H](c3ccc(-c4ccncc4)cc3)[C@@H]2C1` | -32.62 |
| `O=C(C[C@@H]1C[C@H]2c3cc(NC(=O)Nc4ccccc4F)ccc3O[C@H]2[C@H](CO)O1)NC1CCCCC1` | -26.31 |
| `COc1ccc2c3c([nH]c2c1)[C@@H](CO)N(Cc1ccccc1)CC31CCN(Cc2cncnc2)CC1` | -60.73 |
| `CO[C@H]1CN(C)C(=O)c2cc(NC(=O)c3cnccn3)ccc2OC[C@H](C)N(CCc2ccccc2)C[C@@H]1C` | 1.134 |
| `CN1c2ccc(C#Cc3cccnc3)cc2[C@@H]2[C@@H](CCN2S(=O)(=O)c2ccc(F)cc2)[C@H]1CO` | -9.215 |
| `C[C@@H]1CN([C@H](C)CO)C(=O)c2c(c3ccccc3n2C)-c2ccccc2CO[C@@H]1CN(C)S(=O)(=O)c1ccc(F)cc1` | -8.803 |
| `CC(C)NC(=O)NCC[C@H]1CC[C@@H](NS(=O)(=O)c2ccc(Oc3ccccc3)cc2)[C@@H](CO)O1` | -9.126 |
| `C[C@@H]1CN([C@H](C)CO)C(=O)c2c(c3ccccc3n2C)-c2ccccc2CO[C@@H]1CN(C)Cc1cccc(O)c1` | -4.9 |
| `Cc1noc(C)c1S(=O)(=O)N(C)C[C@@H]1OCc2ccccc2-c2c(n(C)c3ccccc23)C(=O)N([C@H](C)CO)C[C@@H]1C` | -65.43 |
| `O=S(=O)(c1ccccc1)N1CCCCN2[C@H](CO)[C@H](c3ccc(C#Cc4cccnc4)cc3)[C@H]2C1` | -28.69 |
| `COc1ccc2c3c([nH]c2c1)[C@@H](CO)N(Cc1ccccc1Cl)CC31CN(C(=O)C2CC2)C1` | -48.12 |
| `COc1ccccc1NC(=O)N1CCCCN2[C@H](C1)[C@@H](c1ccc(-c3cccc(F)c3)cc1)[C@@H]2CO` | -20.23 |
| `C/C=C/c1ccc(C2[C@@H]3CN(S(=O)(=O)c4ccccc4)C[C@H]2N3)cc1` (stereo not given in full) | -5.145 |
| `OC[C@H]1[C@@H](c2ccc(-c3ccc(F)cc3)cc2)[C@@H]2CN(CCC(F)(F)F)CCCCN12` | 2.959 |
| `COCC(=O)N1CC[C@@H]2[C@H](CO)Nc3ccc(-c4cccc(C(=O)N(C)C)c4)cc3[C@@H]21` | -11.54 |
| `O=C(C[C@@H]1CC[C@@H]2[C@H](COC[C@@H](O)CN2Cc2cccc(C(F)(F)F)c2)O1)NCCc1ccccc1` | -4.238 |
| `C[C@@H]1CN([C@H](C)CO)C(=O)c2c(c3ccccc3n2C)-c2ccccc2CO[C@@H]1CN(C)C(=O)[C@@H](Cc1ccccc1)N(C)C` | -16.58 |
| `COc1ccc2c3c([nH]c2c1)[C@H](CO)N(S(=O)(=O)c1cn(C)cn1)CC31CCN(Cc2ccccc2F)CC1` | -30.19 |
| `O=C(c1cccc(F)c1)N1CCCCN2[C@H](CO)[C@@H](c3ccc(/C=C/c4ccccc4)cc3)[C@@H]2C1` | -21.57 |
| `CCCC#Cc1ccc([C@H]2[C@H](CO)N3C(=O)CN(C(=O)c4cccc(F)c4)C[C@@H]23)cc1` | -10.23 |
| `N#C[C@@H]1[C@H](c2ccccc2-c2ccc(F)cc2)[C@H](CO)N1C(=O)NC1CCCCC1` | -11.5 |